Reference: article PMC4236683
No constants are given. Whether binding was seen depends on the method and setting. Some results given as binding are weak or reduced against the parent protein; the word gives no strength. Where a sequence is shown, tags or fusion partners need not be part of it.

By UniProt entry, the sequences of proteins in these tests, tags left out. Residues count along the entry.
UniProt P70207, residues 35-1894: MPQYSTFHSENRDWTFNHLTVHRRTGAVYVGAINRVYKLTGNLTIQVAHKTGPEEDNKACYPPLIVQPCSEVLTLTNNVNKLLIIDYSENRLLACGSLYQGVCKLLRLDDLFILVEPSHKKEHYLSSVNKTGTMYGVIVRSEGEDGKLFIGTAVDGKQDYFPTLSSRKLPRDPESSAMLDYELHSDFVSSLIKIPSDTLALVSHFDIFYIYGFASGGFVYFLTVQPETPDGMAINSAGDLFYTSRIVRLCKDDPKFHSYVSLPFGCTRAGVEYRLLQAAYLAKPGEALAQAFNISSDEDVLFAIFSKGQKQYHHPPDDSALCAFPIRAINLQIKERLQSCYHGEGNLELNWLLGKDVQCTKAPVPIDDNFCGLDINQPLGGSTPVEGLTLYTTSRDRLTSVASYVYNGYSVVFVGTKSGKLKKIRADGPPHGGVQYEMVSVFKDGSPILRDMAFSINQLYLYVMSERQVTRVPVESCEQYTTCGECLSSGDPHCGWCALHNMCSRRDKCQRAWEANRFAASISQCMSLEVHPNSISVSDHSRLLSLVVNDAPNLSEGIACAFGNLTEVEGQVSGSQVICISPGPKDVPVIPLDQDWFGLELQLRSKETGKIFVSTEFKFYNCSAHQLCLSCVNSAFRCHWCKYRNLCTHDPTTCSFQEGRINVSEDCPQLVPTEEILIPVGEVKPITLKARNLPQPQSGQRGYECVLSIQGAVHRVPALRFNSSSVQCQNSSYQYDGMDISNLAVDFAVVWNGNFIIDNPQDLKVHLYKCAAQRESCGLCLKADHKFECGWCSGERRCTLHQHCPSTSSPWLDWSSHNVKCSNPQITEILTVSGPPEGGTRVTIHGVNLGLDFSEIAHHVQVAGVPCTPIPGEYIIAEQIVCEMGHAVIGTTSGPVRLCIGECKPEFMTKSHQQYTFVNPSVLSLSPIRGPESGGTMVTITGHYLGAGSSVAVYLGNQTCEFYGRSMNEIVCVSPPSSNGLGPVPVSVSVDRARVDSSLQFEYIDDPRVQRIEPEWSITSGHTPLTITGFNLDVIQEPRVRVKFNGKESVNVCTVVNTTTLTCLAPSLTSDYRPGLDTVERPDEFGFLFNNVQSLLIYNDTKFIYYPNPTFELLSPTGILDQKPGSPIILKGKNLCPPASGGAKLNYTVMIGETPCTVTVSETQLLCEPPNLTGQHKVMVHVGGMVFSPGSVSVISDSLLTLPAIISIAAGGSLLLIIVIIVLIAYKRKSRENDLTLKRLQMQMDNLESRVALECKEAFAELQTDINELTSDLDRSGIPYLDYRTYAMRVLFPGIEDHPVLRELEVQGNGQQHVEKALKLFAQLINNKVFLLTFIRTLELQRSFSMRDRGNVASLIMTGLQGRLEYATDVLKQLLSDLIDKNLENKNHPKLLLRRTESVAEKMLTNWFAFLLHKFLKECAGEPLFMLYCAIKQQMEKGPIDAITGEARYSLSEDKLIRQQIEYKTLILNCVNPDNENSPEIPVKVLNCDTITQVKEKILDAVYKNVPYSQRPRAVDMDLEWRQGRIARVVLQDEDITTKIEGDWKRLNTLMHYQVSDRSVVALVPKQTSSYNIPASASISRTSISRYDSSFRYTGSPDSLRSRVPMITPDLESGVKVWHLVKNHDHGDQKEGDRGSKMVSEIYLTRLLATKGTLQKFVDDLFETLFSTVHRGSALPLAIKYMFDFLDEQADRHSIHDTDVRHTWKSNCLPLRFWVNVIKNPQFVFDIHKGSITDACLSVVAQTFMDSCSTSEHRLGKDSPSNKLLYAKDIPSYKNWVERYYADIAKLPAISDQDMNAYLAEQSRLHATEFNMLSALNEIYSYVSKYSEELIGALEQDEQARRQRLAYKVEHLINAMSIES

Target: full-length PlexA2 with an N-terminal 6xMyc tag (mouse) (UniProt P70207)
Test: cis competition on co-transfected cells; membrane-bound Sema5A constructs co-expressed with PlexA2 in the same COS7 cells; read out as loss of binding of bath applied Sema5A-Fc

| Binder | binding |
| --- | --- |
| 6xMyc N-terminal-tagged full-length (FL)-Sema5A (ligand, UniProt D3ZTD8 23-1074) ETQDPAKCQRAEHPVVSYKEIGPWLREFRAENAVDFSRLTFDPGQKELVVGARNYLFRLQLEDLSLIQAVQWECDEATKKACYSKGKSKEECQNYIRVLLVGGDRLFTCGTNAFTPVCTIRSLSNLTEIHDQISGMARCPYSPQHNSTALLTASGELYAATAMDFPGRDPAIYRSLGTLPPLRTAQYNSKWLNEPNFVSSYDIGNFTYFFFRENAVEHDCGKTVFSRAARVCKNDIGGRFLLEDTWTTFMKARLNCSRPGEVPFYYNELQSTFFLPELDLIYGIFTTNVNSIAASAVCVFNLSAISQAFNGPFKYQENSRSAWLPYPNPNPNFQCGTMDQGLYVNLTERNLQDAQKFILMHEVVQPVTTVPSFMEDNSRFSHVAVDVVQGRDTLVHIIYLATDYGTIKKVRAPLSQSSGSCLLEEIELFPERKSEPIRSLKILHSQSVLFVGLQEHVVKIPLKRCHFHQTRGACIGAQDPYCGWDAVMKKCTSLEESLSMTQWDQSVPTCPTRNLTVDGSFGPWSPWTPCTHTDGTAVGSCLCRSRSCDSPAPQCGGWQCEGPRMEITNCSRNGGWTPWTSWSPCSTTCGIGFQVRQRSCSNPTPRHGGRVCVGQNREERYCNEHLLCPPHVFWTGWGPWERCTAQCGGGIQARRRTCENGPDCAGCNVEYQPCNTNACPELKKTTPWTPWTPVNISDNGGHYEQRFRYTCKARLPDPNLLEVGRQRIEMRYCSSDGTSGCSTDGLSGDFLRAGRYSAHTVNGAWSAWTSWSQCSRDCSRGIRNRKRVCNNPEPKYGGMPCLGPSLEFQECNILPCPVDGVWSCWSSWSKCSATCGGGHYMRTRSCTNPAPAYGGDICLGLHTEEALCNTQTCPENWSEWSEWSVCDASGTQVRTRQCILLFPVGSQCSGNTTESRPCVFDSNFIPEVSVARSSSVEEKRCGEFNMFHMMAVGLSSSILGCLLTLLVYTYCQRYQQQSHDATVIHPVSPAALNSSITNHINKLDKYDSVEAIKAFNKNNLILEERNKYFNPHLTGKTYSNAYFTDLNNYDEY | binds |
| Sema5A lacking the cytoplasmic domain (6xMyc-Sema5A^Δcyt) (ligand, UniProt D3ZTD8 23-999) ETQDPAKCQRAEHPVVSYKEIGPWLREFRAENAVDFSRLTFDPGQKELVVGARNYLFRLQLEDLSLIQAVQWECDEATKKACYSKGKSKEECQNYIRVLLVGGDRLFTCGTNAFTPVCTIRSLSNLTEIHDQISGMARCPYSPQHNSTALLTASGELYAATAMDFPGRDPAIYRSLGTLPPLRTAQYNSKWLNEPNFVSSYDIGNFTYFFFRENAVEHDCGKTVFSRAARVCKNDIGGRFLLEDTWTTFMKARLNCSRPGEVPFYYNELQSTFFLPELDLIYGIFTTNVNSIAASAVCVFNLSAISQAFNGPFKYQENSRSAWLPYPNPNPNFQCGTMDQGLYVNLTERNLQDAQKFILMHEVVQPVTTVPSFMEDNSRFSHVAVDVVQGRDTLVHIIYLATDYGTIKKVRAPLSQSSGSCLLEEIELFPERKSEPIRSLKILHSQSVLFVGLQEHVVKIPLKRCHFHQTRGACIGAQDPYCGWDAVMKKCTSLEESLSMTQWDQSVPTCPTRNLTVDGSFGPWSPWTPCTHTDGTAVGSCLCRSRSCDSPAPQCGGWQCEGPRMEITNCSRNGGWTPWTSWSPCSTTCGIGFQVRQRSCSNPTPRHGGRVCVGQNREERYCNEHLLCPPHVFWTGWGPWERCTAQCGGGIQARRRTCENGPDCAGCNVEYQPCNTNACPELKKTTPWTPWTPVNISDNGGHYEQRFRYTCKARLPDPNLLEVGRQRIEMRYCSSDGTSGCSTDGLSGDFLRAGRYSAHTVNGAWSAWTSWSQCSRDCSRGIRNRKRVCNNPEPKYGGMPCLGPSLEFQECNILPCPVDGVWSCWSSWSKCSATCGGGHYMRTRSCTNPAPAYGGDICLGLHTEEALCNTQTCPENWSEWSEWSVCDASGTQVRTRQCILLFPVGSQCSGNTTESRPCVFDSNFIPEVSVARSSSVEEKRCGEFNMFHMMAVGLSSSILGCLLTLLVYTYCQRYQQQ | binds |
